Data reported in article PMC8610276.
No constants are given. Whether binding was seen depends on the method and setting. In cells and extracts the contact can be indirect. A result given as binding can be weak or reduced; the word gives no strength.

B1: MOV10, helicase and RNA-binding protein (rat) (protein, UniProt D3ZUC2 1-1004)
chain: MPSKFSCRKLRETGQGFESFLAERGLDLETDRERLRAIYNRDFKPSYGTPAPGFSSMLYGMKIANLAFVTKTRVRFFKLDRWADVQLPEKRRIKPGSSISKQHRSLLARIFHDRAEYLHGKHGVDVEVQGPHEARDGQLLIRLDLNRKEVLTLRLRNGGTKPVTLTHLFPLCWTPQFVFYHGEQDLPCPLGPGESYELHVYCKTSIVGYFPATVLWELLGPGESGAEGAETFYIARFLAAVAHSPLAAQLKPTTPFKRPPRLTRNPVSTNRIEEGERPDRAKGYELELSLALGTYYPPIRLRQLLPTLLQGPSIFTSPKEVAEIKAQLETTLKSRNYEVKLRLLLHLEELQMEHDIRHYDLESVPMTWDPVDQNPRLLTLEVPGVTESRPSVLRGDHLFALLSSEIQQEDPVTYKGFVHKVELDRVKLSFSPSLLSRFVDGLTFKVNFTFNRQPLRVQHRALELTGRWVLWPTLFPVASRGVSLLPSDVKFKLYDRSLESNPEQLQAMKHIVRGTTRPAPYIIFGPPGTGKTVTLVEAIKQVVKHLPKAHILACTPSNSGADLLCQRLRVHLPSSIYRLLAPSRDIRMVPEDIKTCCNWDPKKGEYVYPAKKHLQQYRVLITTLITASRLVSAQFPIDHFTHIFIDEAGHCMEPESLVAIAGLMDVKETGNPGGQLVLAGDPRQLGPVLRSPLAQKHGLGYSLLERLLTYNSLYKKGPNGYDPQFITKLLRNYRSHPTILDIPNQLYYDGELQACADVVDRERFCRWEGLPQQGFPIIFHGVMGKDEREGNSPSFFNPEEAATVTSYLRQLLAPSSKKGKARLSPRSVGVISPYRKQVEKIRYCITKLDRELRGLDDIKDLKVGSVEEFQGQERSVILISTVRSSQSFVQLDLDFNLGFLKNPKRFNVAVTRAKALLIVVGNPLLLGHDPDWKTFLEFCKENGGYTGCPFPAKLDLQQGQDLLQGLSKLSPSTSGPRRHQRLPQEREGEEGLPLQVEPEWRNEL
B2: Trim32, E3 ligase (rat) (protein, UniProt Q66H79 1-655)
chain: MAAAAAASHLNLDALREVLECPICMESFTEEQLRPKLLHCGHTICRQCLEKLLASSINGVRCPFCSKITRITSLTQLTDNLTVLKIIDTAGLSEAVGLLMCRACGRRLPRQFCRSCGLVLCEPCREADHQPPGHCTLPVKEAAEERRRDFGEKLTRLRELTGELQRRKAALEGVSRDLQARYKAVLQEYGHEERRVQEELARSRKFFTGSLAEVEKSNSQVVEEQSYLLNIAEVQAVSRCDYFLAKIKQADVALLEETADEEEPELTASLPRELTLQDVELLKVGHVGPLQIGQAVKKPRTVNMEDSWAVEEGAASSASASVTFREMDMSPEEVVPSPRASPAKQRSSEAASSIQQCLFLKKMGAKGSTPGMFNLPVSLYVTSQSEVLVADRGNYRIQVFNRKGFLKEIRRSPSGIDSFVLSFLGADLPNLTPLSVAMNCHGLIGVTDSYDNSLKVYTLDGHCVACHRSQLSKPWGITALPSGQFVVTDVEGGKLWCFTVDRGAGVVKYSCLCSAVRPKFVTCDAEGTVYFTQGLGLNVENRQNEHHLEGGFSIGSVGPDGQLGRQISHFFSENEDFRCIAGMCVDARGDLIVADSSRKEILHFPKGGGYSVLIREGLTCPVGIALTPKGQLLVLDCWDHCVKIYSYHLRRYSTP

Columns and labels:
[1] = biological target: T1, MOV10, helicase and RNA-binding protein (rat) (rat (endogenous in hippocampus and in cultured hippocampal neurons)) (UniProt D3ZUC2); assay: co-IP; MOV10 antibody (5 ug) or rabbit IgG with protein G-agarose on post-mitochondrial supernatant of adult SD rat hippocampi; lysis in 50 mM Tris pH 7.5, 150 mM NaCl, 1% NP-40, 2 mM EDTA with RNase inhibitor; washes with 150 and 300 mM NaCl; 4°C; western blot
T1 sequence: B1 chain

[2] = biological target: Argonaute (Ago) (rat) (rat (endogenous in hippocampus and in cultured hippocampal neurons)); assay: co-IP; pan-Ago antibody with protein G-agarose on lysates of cultured rat hippocampal neurons treated with bicuculline (10 uM) or vehicle for 24 hours; 20 mM Tris-HCl, 200 mM NaCl, 2.5 mM MgCl2, 1% NP-40, RNase inhibitor; 4°C; western blot

Molecule | binding [1] | binding [2]
Argonaute (Ago) (rat) | binds | 
B1 |  | binds
B2 |  | binds
